In the experiment the target is CrPV 2B-eGFP fusion protein (WT) (cricket paralysis virus) (UniProt Q9IJX4). Description: co-IP; GFP-Trap magnetic agarose on lysates of cells co-transfected with eGFP, 2B-eGFP or 2B(D29N)-eGFP and Sting-V5; lysis buffer 10 mM Tris-HCl pH 7.5, 150 mM NaCl, 0.5 mM EDTA, 0.5% NP-40, 1 mM PMSF; 1 h at 4°C; four washes with 0.05% NP40; western blot with eGFP, V5 and GAPDH antibodies.

Results are given in words; binding and its absence hold for the method and conditions named. Binding seen in cells or lysates may run through a third protein. Some binding calls cover weakened binding; strength is not graded here. Where a sequence is shown, tags or fusion partners need not be part of it.

B1: Drosophila Sting-V5 (protein, UniProt A0A0B4LFY9 1-343)
chain: MAIASNVVEAGNAVRAEKGRKYFYFRKMIGDYIDTSIRIVATVFLADLLLRLYRCVVEYGSNGRYYLPEDRLWIILRRSCTYNNRSIYLIVGFLLVAFFRISVTGNYRNVMPTTLFLFQMPLYWIWSFTDMDQSTLSYSHWIRDSHGLDYAAGMASNYFHGYLKLSLPERKDDGLKHRLAMYEDKNNVTFGIKRLVILIPDEMFVNGVLESHLLDKAEPLETQFINRAGVYRPFKHDVYRMNKKVNGRTYYFAVEGATPMISFFDATYSNLSGTWQMQELKREIWIKFYKHLKELITTWPETRDLVELIIYNSHDSKGNLVDVGELLVAHMQNKTKTIDEISN
As to B1, the binding entry was “binds”.

The values are drawn from PMC12817933.
